# In PMC10719321:
# Amino acid sequences for entries named in this document (tags omitted). A change or cut given only in a name is not applied to a line headed by its entry.
# UniProt P43406: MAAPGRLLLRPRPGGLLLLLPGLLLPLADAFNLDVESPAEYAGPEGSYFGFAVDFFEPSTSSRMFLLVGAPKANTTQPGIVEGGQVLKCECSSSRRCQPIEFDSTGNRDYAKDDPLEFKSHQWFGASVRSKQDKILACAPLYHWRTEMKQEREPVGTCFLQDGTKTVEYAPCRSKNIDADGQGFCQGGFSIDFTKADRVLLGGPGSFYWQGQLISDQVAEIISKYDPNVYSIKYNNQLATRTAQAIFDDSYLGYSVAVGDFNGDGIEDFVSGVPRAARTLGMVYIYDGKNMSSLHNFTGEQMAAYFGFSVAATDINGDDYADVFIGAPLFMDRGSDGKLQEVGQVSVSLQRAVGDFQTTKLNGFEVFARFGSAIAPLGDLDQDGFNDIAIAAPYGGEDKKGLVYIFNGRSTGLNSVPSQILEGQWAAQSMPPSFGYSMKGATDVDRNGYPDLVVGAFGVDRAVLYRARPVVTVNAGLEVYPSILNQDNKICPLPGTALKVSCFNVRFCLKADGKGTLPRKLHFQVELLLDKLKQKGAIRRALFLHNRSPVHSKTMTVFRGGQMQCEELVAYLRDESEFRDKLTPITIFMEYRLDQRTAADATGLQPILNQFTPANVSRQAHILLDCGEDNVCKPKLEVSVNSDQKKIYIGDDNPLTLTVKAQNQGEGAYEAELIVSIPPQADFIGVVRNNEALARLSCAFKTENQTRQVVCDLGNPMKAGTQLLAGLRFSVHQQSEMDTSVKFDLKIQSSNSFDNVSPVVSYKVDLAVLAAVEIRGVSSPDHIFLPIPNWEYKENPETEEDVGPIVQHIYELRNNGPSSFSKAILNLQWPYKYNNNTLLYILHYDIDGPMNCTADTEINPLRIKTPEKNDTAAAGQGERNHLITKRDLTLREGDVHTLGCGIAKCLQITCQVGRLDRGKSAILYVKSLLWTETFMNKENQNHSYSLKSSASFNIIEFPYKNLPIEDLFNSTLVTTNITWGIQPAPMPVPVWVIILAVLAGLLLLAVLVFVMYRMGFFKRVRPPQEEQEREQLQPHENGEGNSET
# These are yes or no findings as the source states them, for the method shown. Some entries that bind do so weakly or less than the wild type. Where a sequence is shown, tags or fusion partners need not be part of it.
# Target: T1, commercially available mammalian cell-expressed His-tagged recombinant human MFG-E8 (R&D Systems, cat: 2767-MF) (human) (UniProt Q08431)
# T1 sequence: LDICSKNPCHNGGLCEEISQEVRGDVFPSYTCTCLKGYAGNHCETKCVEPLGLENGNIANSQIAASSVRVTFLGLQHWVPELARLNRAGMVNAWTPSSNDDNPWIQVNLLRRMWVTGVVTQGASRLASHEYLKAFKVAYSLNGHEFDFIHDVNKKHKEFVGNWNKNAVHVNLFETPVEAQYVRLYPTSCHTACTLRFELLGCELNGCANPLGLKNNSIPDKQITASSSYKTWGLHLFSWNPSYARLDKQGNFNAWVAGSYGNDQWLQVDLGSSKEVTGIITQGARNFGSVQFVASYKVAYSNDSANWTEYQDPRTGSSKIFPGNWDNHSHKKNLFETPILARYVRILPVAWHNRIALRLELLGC
# Assay: cell adhesion assay; wells pre-coated with different concentrations of rhMFG-E8; fluorescently labelled SVEC4-10 cells added; after washes the percentage of cells that remained bound to the plate read on a fluorescence plate reader; also done with lyophilised, stored (-20 °C, up to 2 years) and reconstituted tag-free protein; only the target purified
substance,measurement,value
αVβ3 integrin on the surface of mouse vascular endothelial cells SVEC4-10 (from UniProt P43406 31-1044; O54890 26-787) (complex),binding,binds
